Data on one substance can be found in paper PMC3917433.

The chains behind the UniProt entries cited, without tags or fusion partners. Where a name states a change or a piece, a line headed by the entry shows the natural chain unless it says otherwise. A line that says so, or that is headed by a name, gives the form on record, which may keep a tag or linker.
Jumonji domain containing 3 (JMJD3) (O15054, form named): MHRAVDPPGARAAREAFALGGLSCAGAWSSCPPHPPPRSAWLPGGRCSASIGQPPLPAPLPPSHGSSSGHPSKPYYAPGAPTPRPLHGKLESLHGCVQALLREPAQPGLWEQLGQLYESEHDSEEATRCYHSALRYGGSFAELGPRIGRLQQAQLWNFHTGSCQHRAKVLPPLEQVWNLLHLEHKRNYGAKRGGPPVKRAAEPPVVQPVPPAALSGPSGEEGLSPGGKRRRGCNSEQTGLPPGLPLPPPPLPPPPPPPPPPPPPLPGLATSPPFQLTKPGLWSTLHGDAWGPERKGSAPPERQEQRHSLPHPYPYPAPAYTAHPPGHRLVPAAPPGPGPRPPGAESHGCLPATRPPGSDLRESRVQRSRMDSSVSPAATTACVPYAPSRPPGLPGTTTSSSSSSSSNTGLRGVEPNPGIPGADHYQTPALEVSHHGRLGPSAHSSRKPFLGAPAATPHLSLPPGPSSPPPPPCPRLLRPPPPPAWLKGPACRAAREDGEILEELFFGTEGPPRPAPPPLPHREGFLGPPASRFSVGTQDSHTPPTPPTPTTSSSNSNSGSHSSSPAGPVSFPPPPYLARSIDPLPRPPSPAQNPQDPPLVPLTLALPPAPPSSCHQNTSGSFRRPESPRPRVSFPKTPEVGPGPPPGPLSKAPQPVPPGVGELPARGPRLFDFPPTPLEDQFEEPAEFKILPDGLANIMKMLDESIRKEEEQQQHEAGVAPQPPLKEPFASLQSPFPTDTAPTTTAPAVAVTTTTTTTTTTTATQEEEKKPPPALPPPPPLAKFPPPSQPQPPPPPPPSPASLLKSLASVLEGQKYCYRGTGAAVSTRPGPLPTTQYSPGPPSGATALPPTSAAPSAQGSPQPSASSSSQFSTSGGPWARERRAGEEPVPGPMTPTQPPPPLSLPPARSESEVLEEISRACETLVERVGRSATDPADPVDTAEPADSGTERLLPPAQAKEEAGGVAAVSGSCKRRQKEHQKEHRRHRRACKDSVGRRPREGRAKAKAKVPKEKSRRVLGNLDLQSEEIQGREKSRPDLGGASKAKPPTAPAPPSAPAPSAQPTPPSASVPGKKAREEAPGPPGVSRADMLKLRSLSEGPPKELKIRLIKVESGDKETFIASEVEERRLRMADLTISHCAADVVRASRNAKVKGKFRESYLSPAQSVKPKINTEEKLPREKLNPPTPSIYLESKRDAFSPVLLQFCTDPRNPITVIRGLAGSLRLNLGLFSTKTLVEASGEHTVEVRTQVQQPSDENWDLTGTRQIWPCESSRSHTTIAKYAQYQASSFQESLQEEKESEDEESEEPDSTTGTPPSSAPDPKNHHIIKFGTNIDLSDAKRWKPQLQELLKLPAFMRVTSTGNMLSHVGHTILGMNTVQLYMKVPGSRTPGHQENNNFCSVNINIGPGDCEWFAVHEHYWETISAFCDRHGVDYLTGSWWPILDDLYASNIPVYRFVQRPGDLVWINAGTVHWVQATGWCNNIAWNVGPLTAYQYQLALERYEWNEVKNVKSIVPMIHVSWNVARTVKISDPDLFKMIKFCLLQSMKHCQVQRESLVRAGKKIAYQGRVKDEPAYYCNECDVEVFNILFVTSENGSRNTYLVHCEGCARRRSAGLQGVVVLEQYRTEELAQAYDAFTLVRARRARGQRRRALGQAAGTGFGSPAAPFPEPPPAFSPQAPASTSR
UniProt P09104: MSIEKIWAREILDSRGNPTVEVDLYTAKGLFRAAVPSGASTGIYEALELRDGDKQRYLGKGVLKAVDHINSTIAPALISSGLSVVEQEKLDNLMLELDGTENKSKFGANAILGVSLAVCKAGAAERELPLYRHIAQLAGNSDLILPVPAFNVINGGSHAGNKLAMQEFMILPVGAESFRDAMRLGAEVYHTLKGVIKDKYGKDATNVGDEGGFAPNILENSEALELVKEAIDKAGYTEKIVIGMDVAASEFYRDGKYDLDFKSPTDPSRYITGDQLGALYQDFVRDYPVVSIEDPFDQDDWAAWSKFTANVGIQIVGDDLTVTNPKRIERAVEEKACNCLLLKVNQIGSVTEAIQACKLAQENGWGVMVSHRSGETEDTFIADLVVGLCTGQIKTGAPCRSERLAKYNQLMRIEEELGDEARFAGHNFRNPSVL
UniProt P23588: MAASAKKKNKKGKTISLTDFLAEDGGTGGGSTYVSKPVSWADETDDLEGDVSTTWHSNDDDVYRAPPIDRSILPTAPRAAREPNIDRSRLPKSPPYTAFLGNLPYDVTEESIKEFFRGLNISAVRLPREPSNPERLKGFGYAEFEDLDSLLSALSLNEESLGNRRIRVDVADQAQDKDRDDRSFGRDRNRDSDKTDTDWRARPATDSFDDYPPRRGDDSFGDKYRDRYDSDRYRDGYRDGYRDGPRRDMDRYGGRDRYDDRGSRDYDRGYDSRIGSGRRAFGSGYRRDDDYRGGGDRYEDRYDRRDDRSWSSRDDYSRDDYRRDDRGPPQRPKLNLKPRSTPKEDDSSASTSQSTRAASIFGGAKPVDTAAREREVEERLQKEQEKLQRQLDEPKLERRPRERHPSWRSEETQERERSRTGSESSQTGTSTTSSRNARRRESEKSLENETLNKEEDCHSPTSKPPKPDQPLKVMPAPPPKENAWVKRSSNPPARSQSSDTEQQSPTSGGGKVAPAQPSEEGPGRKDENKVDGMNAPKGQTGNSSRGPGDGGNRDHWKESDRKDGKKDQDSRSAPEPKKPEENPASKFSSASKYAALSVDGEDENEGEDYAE
Chromosome 11 open reading frame 56 (C11orf56) (Q8N612, form named): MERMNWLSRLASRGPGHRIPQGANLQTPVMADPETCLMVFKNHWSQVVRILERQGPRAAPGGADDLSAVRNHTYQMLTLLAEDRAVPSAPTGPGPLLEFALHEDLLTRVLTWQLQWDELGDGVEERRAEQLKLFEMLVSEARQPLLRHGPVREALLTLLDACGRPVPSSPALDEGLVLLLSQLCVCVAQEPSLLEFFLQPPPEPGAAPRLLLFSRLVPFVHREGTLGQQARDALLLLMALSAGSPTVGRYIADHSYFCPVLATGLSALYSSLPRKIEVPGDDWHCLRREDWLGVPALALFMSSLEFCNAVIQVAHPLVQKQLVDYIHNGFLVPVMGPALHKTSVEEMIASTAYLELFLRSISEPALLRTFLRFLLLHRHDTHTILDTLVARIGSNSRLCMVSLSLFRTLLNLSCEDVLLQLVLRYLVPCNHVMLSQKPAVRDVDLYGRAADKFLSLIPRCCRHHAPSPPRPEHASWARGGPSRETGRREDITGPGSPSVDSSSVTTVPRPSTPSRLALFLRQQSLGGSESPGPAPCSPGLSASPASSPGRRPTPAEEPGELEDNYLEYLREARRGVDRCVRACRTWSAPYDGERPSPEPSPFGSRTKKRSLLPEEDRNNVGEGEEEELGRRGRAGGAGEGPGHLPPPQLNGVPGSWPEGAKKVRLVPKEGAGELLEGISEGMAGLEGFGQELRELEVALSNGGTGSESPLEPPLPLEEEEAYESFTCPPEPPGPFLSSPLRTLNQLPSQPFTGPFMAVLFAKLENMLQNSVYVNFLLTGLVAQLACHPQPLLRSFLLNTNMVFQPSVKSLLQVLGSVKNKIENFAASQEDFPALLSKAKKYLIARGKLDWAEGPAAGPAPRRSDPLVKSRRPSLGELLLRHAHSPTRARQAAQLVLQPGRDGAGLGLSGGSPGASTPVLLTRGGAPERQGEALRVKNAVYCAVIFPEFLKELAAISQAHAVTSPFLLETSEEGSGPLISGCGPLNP
UniProt O15379: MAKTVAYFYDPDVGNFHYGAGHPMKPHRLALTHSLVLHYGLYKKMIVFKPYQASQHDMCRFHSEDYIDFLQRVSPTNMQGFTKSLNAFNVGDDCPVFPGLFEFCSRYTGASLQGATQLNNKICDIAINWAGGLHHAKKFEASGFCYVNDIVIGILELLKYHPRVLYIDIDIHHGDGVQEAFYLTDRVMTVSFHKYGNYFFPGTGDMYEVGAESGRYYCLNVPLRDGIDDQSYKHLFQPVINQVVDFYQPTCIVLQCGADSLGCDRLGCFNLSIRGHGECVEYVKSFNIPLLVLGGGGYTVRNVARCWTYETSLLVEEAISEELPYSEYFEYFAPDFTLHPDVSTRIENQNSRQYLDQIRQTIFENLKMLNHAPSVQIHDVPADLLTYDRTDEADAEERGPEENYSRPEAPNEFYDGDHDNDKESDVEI
UniProt P13202: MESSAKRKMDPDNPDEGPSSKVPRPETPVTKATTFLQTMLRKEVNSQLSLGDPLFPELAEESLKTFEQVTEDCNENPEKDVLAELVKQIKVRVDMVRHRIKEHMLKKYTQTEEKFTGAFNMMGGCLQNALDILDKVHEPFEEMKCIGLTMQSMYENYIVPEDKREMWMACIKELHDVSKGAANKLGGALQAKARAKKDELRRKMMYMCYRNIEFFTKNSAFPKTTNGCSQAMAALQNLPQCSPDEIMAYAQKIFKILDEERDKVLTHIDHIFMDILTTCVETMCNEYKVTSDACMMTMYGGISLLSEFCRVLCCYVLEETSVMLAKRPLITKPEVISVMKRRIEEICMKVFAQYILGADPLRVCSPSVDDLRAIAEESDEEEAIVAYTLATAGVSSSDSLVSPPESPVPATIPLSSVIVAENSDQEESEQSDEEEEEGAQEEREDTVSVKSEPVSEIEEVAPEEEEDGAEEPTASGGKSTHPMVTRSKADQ

These are yes or no findings as the source states them, for the method shown. Some binding calls cover weakened binding; strength is not graded here.

Holding throughout (assay): peptide or protein array; only the binder purified
For assay [1], the target named is Jumonji domain containing 3 (JMJD3) (human) (UniProt O15054).
For another assay, the target named is T1, KIAA0681 protein (human) (UniProt Q9Y468).
T1 sequence: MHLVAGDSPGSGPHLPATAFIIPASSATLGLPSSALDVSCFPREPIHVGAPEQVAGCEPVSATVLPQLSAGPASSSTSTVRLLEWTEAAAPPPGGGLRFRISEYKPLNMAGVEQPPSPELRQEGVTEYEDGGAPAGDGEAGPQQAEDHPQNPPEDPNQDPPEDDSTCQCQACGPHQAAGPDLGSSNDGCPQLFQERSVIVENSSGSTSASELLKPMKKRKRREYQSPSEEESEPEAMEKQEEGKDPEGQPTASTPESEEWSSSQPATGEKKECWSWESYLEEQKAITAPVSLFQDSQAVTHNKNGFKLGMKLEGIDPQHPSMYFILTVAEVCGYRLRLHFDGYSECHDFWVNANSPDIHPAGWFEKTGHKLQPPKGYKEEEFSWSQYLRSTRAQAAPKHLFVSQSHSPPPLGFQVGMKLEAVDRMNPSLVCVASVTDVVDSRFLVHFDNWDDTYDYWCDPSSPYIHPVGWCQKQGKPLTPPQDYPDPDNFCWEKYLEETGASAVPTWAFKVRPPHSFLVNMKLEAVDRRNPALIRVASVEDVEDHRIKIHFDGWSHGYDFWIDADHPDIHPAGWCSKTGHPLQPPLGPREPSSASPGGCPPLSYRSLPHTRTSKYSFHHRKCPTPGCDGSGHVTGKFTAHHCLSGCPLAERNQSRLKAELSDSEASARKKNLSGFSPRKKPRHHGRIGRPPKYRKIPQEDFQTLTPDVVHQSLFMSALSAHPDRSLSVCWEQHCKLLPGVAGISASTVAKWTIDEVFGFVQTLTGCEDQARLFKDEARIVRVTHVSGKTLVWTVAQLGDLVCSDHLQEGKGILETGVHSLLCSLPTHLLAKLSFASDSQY

For assay [2], the target named is Gamma enolase (EC 4.2.1.11) (human) (UniProt P09104).
In assay [3] the target is T2, Serine/threonine kinase ULK1 (ULK1) (human) (UniProt O75385).
T2 sequence: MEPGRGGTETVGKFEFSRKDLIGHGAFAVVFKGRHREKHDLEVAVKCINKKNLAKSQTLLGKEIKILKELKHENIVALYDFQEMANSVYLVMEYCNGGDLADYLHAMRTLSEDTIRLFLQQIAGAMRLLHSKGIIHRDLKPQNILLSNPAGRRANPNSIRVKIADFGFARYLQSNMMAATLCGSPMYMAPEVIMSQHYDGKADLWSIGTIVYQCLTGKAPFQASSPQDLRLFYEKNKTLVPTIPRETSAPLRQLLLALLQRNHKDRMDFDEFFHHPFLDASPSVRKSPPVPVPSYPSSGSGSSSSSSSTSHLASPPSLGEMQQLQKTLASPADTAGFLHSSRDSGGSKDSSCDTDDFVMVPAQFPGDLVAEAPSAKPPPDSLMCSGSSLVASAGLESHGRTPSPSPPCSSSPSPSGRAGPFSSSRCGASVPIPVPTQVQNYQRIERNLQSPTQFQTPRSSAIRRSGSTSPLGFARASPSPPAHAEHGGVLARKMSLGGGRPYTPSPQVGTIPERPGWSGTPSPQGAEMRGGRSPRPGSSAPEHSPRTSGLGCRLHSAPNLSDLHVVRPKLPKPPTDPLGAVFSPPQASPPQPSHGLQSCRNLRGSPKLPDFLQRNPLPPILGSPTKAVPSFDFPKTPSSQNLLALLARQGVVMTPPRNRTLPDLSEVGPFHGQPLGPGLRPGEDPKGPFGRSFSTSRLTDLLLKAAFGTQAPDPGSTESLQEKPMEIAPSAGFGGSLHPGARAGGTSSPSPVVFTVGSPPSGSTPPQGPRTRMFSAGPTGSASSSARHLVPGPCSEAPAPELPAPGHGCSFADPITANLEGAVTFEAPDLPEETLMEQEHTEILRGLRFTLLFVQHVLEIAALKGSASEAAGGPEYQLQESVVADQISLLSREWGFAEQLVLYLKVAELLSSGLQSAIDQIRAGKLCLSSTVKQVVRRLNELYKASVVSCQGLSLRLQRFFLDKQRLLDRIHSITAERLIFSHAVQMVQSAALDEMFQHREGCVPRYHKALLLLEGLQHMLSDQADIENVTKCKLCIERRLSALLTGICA

Assay [4] deals with Eukaryotic translation initiation factor 4B (EIF4B) (human) (UniProt P23588).
Assay [5] addresses T3, Cell division cycle 25 homolog A (CDC25A) (human) (UniProt P30304).
T3 sequence: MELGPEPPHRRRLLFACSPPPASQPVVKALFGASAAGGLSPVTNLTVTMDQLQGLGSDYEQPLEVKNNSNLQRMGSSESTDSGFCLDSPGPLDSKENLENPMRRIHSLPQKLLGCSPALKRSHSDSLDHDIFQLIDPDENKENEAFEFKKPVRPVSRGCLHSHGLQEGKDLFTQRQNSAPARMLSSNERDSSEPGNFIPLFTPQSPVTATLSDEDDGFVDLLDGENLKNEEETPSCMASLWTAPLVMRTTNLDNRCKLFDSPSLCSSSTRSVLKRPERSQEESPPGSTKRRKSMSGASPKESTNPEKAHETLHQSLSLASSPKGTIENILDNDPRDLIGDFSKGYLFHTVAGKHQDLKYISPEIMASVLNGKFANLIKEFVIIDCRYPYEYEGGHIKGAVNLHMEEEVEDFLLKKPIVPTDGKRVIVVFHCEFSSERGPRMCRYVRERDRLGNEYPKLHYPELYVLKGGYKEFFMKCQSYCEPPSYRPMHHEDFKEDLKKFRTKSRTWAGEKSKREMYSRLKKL

The target in assay [6] is T4, CDCA4 Cell division cycle associated gene 4 (human) (UniProt Q9BXL8).
T4 sequence: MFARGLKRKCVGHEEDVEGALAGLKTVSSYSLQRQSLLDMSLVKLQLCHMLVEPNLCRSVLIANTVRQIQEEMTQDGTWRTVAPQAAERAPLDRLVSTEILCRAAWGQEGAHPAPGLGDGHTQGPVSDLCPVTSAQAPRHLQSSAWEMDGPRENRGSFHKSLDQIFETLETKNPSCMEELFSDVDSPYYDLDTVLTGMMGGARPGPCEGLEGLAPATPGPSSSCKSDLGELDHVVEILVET

The target in assay [7] is Chromosome 11 open reading frame 56 (C11orf56) (human) (UniProt Q8N612).
The next assay concerns the target HDAC3 (human) (UniProt O15379).

On to “Human cytomegalovirus immediate-early protein 1 (from UniProt P13202 1-491)”, for which the binding result (in assay [1]; in the assay with KIAA0681 protein (human); in assay [2]; in assay [3]; in [4]; in [5]) was “binds” throughout. Also, the binding result is given as “binds” in assay [6], “binds” in assay [7] and “no binding” in the assay with HDAC3 (human).
